Over roughly 33,000 sequences, “E-score (-0.5 to 0.5)” has its median near -0.0014; the highest 2% begin near 0.25. The list shows a part of the results.
The sequences below were run against T1, Cad1 (UniProt P24813) (assay: PBM E-score (8-mer binding enrichment) (E-score (-0.5 to 0.5)); higher = stronger / more preferred TF binding). Conditions: protein concentration: 100 nM; construct: GST-full length.
T1 sequence: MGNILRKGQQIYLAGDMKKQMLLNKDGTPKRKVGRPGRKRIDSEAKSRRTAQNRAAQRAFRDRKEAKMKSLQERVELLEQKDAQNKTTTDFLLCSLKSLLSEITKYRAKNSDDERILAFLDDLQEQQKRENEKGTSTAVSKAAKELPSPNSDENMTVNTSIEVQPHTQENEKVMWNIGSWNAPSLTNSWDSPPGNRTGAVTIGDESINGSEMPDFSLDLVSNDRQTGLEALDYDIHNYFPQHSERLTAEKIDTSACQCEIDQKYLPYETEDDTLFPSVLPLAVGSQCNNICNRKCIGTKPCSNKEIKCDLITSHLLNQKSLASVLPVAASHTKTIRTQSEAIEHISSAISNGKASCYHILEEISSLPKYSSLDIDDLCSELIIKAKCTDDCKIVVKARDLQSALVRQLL
Procedure: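 Universal 'all 10-mer' protein binding microarrays (Agilent AMADID 015681) probed with GST-tagged S. cerevisiae TFs (full-length or DBD) made by in vitro transcription/translation (PURExpress), about 100-200 nM. Bound TF was detected with fluorescent anti-GST. Each ungapped 8-mer (which stands for itself and its reverse complement) is scored by the PBM enrichment score (E-score), a modified Wilcoxon-Mann-Whitney statistic from -0.5 to +0.5, computed with the Universal PBM Analysis Suite. Scale: above 0.35 generally sequence-specific binding.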

Sequence | PBM E-score
ACACCTAT | -0.0643
TGTTAGAA | 0.065
CTGTTGGC | -0.202
AGTTCTAT | 0.0729
ATGCGGAG | -0.193
ACAACATG | 0.0955
ACGAGTGA | -0.106
TCGTTAGA | 0.0445
GTTCTCTA | 0.0943
CGCTTAGA | -0.0306
GAAGGTGC | -0.131
CATGCCAG | -0.0523
ACGATGTC | -0.0104
AGCGTTAT | 0.0656
CCAAGATA | 0.0014
AACTGGCC | -0.00047
AAACCCTT | 0.0351
GATATCTA | 0.00132
CATCGCCA | 0.118
AATCCTGG | -0.119
GATAGGTA | 0.165
GCTCGCGA | 0.3

Sequence | PBM E-score
ACATTTAG | -0.126
TCGATCGA | 0.27
CGCCGTGC | -0.0909
CTTAGGAC | -0.0513
CCCACGAA | 0.115
TCCAGTAA | -0.00179
TACTAGCA | 0.0596
AGTGTTTG | 0.0711
AGCTACAC | 0.138
CGGCTGAC | 0.225
CTTCTCGC | -0.101
ATTTCGCC | 0.111
CGTTTCTA | -0.0391
ATCATGAG | 0.0863
GATACCTA | 0.16
CGGAGCCG | -0.184
CGGTTGCA | 0.0228
ACGAATCG | 0.147
GATACAGA | 0.0966
AGCGAACG | -0.117
GCCCCCAC | -0.447
CTCCTCTC | -0.347

Sequence | PBM E-score
ATCGAAGA | 0.16
ACGAGGAC | 0.0525
CGCACTAA | 0.155
CGTATCGC | 0.0665
TACAGCCA | -0.0132
TTCCACAA | 0.0931
CGTAATAA | 0.12
ATGCAGGC | -0.0746
CGATCCAC | -0.131
AAAGAGGC | -0.201
TGGCGTAA | -0.0625
CCTCAAGG | -0.0591
CAAGGCAG | -0.0882
AGGCGTGA | -0.107
GAGCCGAA | -0.00606
ACTGACAC | -0.0887
AAGGGAAT | -0.134
ATTCCACC | 0.0814
AAGGATTG | 0.0588
ACATCGTG | 0.0175
AGCACCAA | 0.0274
AACCGATC | -0.0978

Sequence | PBM E-score
GTCACATA | 0.0592
CATCTCAC | 0.0163
CTCTCTCA | -0.107
CTCCGGCC | -0.379
CACACACC | 0.0169
CCATCCGC | 0.0114
AAGTTTGT | 0.0981
AGACAGCC | -0.132
CCCTTTAA | -0.135
TATACGGA | -0.17
AAGTTCTC | 0.0778
AGTAAGCG | 0.338
TATGCTAA | -0.0457
CCACCGTC | -0.242
GCCTTACA | -0.277
CGGATCAC | 0.156
ATGCCGTA | 0.0523
CGCATTGC | 0.165
AAGTACCG | 0.0375
CACGCCTG | -0.0998

Rewritten as tab-separated lines: part of the list above.
Sequence	PBM E-score
ACACCTAT	-0.0643
ACGAGTGA	-0.106
CGCTTAGA	-0.0306
AGCGTTAT	0.0656
CATCGCCA	0.118
GCTCGCGA	0.3
CGCCGTGC	-0.0909
TACTAGCA	0.0596
AGCTACAC	0.138
CGGCTGAC	0.225
GATACCTA	0.16
CGGAGCCG	-0.184
AGCGAACG	-0.117
ACGAGGAC	0.0525
TACAGCCA	-0.0132
TTCCACAA	0.0931
CGTAATAA	0.12
ACTGACAC	-0.0887
AACCGATC	-0.0978
GTCACATA	0.0592
CTCCGGCC	-0.379
AAGTTTGT	0.0981
AAGTACCG	0.0375
